From article PMC13538393
Where a chain is given by its changes, count along the chain named. No constants are given. Whether binding was seen depends on the method and setting. In cells and extracts the contact can be indirect. Here binding means that the protein was enriched with, or labelled near, the bait; the list need not be complete. For some of these results: Sequences can lack the tags named with a protein.

Protein sequences, listed by entry. Tags and fused reporters are not part of them.
UniProt Q96RR4: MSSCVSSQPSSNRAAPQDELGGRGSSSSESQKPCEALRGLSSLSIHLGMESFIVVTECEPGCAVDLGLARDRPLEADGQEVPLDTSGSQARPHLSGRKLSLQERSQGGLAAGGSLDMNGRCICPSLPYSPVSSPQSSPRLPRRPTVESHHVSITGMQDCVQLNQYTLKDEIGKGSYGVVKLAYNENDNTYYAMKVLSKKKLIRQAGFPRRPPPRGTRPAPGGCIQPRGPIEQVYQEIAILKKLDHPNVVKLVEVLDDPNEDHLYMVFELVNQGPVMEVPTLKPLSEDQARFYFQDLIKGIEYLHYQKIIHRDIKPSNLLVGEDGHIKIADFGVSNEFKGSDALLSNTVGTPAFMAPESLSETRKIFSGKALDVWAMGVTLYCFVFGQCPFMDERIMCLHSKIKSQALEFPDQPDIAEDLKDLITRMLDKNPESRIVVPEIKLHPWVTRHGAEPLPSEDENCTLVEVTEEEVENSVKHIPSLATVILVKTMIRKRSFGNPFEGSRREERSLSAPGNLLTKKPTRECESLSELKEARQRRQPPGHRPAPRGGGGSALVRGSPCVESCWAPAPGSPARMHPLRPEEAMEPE
UniProt Q13131: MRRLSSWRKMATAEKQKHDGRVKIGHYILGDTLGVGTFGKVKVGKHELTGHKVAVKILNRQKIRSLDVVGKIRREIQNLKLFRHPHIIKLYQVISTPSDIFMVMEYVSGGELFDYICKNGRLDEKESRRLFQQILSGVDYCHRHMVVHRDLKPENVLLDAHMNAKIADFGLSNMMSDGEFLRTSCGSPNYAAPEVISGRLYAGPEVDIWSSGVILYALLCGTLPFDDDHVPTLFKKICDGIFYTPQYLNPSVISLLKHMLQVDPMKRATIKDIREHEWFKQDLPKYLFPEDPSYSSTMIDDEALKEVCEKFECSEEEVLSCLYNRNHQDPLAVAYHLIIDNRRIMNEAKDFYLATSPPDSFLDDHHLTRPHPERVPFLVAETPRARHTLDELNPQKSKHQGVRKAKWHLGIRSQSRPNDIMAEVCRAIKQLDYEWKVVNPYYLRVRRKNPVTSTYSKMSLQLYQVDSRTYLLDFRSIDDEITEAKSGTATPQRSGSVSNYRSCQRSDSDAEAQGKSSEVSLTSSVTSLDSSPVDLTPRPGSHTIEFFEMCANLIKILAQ
UniProt P63104: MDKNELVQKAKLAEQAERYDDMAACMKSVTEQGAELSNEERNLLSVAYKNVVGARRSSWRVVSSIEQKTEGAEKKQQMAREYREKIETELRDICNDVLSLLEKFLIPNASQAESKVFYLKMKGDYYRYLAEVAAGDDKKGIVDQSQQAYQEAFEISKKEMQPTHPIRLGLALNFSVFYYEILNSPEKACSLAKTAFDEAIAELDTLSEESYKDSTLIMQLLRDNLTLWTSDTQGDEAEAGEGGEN
UniProt O75147: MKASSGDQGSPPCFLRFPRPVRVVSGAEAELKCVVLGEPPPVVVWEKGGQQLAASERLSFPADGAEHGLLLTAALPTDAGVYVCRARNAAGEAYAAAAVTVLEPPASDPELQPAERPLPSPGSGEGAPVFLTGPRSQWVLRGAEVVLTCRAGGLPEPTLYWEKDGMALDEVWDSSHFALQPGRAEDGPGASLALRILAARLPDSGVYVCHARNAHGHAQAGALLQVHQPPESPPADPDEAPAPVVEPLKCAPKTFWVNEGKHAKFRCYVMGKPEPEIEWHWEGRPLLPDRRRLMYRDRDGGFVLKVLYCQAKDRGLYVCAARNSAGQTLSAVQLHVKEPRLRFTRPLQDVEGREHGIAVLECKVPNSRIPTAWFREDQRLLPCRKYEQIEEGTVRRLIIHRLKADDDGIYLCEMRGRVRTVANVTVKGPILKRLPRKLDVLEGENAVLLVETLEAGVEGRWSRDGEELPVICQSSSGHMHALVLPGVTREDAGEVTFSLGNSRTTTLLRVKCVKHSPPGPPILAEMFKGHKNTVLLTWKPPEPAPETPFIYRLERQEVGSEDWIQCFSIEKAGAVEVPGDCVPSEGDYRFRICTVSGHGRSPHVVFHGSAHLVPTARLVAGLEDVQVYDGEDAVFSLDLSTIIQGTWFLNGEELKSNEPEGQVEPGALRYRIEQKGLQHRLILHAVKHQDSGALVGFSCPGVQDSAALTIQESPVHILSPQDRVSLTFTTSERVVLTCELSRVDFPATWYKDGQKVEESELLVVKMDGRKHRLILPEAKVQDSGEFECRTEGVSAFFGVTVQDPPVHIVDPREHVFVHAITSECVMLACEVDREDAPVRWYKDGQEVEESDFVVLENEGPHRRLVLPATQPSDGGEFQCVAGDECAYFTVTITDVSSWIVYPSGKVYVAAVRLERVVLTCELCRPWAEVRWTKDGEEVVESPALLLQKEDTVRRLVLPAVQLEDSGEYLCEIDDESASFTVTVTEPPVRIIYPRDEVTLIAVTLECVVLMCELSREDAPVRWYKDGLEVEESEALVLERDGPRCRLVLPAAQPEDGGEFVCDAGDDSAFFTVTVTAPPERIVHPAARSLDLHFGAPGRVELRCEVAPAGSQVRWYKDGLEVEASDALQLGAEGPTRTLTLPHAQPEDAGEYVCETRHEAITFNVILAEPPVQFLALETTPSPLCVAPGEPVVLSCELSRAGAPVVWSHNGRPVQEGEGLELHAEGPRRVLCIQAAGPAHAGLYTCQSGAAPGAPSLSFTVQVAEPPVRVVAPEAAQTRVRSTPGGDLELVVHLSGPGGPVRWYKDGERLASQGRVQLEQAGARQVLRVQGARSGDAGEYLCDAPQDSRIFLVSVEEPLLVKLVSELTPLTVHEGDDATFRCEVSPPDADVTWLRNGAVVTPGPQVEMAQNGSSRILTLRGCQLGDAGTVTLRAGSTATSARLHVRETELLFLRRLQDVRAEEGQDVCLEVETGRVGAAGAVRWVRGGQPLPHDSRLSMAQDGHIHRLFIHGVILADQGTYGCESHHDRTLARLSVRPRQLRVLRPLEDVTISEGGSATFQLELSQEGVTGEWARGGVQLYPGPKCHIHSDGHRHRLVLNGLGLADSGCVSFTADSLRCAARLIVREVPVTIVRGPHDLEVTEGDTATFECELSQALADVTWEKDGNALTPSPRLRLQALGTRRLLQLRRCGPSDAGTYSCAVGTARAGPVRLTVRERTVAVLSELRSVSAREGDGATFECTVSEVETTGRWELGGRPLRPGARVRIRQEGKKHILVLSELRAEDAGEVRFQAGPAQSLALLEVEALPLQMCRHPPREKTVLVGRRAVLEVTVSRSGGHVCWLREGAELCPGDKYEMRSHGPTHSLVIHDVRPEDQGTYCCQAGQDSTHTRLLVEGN
UniProt P55786: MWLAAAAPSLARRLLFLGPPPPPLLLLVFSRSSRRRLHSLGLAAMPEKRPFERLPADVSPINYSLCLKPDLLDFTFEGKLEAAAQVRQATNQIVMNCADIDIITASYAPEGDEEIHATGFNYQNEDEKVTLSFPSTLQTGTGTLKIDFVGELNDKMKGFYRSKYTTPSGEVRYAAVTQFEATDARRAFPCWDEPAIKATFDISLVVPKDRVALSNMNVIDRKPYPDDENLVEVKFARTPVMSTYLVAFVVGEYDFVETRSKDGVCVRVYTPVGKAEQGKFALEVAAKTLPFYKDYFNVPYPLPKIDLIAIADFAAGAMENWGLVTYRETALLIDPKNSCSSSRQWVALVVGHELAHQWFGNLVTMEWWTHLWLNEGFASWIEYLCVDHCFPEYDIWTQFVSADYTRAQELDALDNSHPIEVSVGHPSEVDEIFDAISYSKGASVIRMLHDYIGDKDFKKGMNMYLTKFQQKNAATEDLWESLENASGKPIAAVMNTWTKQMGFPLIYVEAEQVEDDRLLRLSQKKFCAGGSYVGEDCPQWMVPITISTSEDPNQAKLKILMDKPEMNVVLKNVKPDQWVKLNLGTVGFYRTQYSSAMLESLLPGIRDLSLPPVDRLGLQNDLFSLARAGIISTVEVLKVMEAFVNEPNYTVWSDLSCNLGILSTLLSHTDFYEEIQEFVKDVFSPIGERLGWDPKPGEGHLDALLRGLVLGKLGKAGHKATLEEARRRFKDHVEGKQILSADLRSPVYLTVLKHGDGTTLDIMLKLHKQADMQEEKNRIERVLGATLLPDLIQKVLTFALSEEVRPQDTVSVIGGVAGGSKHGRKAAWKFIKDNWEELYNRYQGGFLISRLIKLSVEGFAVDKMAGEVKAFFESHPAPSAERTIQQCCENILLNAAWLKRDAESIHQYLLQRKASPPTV
UniProt Q93009: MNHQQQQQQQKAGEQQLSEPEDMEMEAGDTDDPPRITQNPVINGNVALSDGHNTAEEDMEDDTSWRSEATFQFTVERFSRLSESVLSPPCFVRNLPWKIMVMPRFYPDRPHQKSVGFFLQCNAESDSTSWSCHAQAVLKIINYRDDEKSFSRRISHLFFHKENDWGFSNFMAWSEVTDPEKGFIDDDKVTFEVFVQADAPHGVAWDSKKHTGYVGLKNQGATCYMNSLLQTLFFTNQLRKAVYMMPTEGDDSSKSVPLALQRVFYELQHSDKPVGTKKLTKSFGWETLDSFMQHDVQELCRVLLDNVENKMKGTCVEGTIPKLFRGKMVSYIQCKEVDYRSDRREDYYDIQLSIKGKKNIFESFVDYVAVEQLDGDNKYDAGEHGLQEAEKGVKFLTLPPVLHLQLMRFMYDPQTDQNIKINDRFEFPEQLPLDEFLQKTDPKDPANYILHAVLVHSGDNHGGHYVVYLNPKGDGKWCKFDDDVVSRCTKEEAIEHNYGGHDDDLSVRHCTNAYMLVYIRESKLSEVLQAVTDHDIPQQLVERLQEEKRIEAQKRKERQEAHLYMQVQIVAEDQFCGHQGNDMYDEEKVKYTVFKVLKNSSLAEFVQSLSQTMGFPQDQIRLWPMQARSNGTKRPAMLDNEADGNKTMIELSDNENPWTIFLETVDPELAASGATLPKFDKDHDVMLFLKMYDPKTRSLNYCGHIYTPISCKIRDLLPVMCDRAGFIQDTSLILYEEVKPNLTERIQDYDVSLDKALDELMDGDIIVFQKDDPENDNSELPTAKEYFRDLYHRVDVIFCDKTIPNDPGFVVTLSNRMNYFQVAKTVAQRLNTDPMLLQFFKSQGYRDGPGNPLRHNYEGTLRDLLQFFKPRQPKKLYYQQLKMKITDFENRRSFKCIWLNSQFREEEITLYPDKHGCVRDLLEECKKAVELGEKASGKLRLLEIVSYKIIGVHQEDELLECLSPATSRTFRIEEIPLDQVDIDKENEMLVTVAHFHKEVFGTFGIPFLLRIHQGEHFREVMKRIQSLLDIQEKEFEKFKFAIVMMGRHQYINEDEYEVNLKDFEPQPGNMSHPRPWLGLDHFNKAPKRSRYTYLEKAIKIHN
UniProt P49736: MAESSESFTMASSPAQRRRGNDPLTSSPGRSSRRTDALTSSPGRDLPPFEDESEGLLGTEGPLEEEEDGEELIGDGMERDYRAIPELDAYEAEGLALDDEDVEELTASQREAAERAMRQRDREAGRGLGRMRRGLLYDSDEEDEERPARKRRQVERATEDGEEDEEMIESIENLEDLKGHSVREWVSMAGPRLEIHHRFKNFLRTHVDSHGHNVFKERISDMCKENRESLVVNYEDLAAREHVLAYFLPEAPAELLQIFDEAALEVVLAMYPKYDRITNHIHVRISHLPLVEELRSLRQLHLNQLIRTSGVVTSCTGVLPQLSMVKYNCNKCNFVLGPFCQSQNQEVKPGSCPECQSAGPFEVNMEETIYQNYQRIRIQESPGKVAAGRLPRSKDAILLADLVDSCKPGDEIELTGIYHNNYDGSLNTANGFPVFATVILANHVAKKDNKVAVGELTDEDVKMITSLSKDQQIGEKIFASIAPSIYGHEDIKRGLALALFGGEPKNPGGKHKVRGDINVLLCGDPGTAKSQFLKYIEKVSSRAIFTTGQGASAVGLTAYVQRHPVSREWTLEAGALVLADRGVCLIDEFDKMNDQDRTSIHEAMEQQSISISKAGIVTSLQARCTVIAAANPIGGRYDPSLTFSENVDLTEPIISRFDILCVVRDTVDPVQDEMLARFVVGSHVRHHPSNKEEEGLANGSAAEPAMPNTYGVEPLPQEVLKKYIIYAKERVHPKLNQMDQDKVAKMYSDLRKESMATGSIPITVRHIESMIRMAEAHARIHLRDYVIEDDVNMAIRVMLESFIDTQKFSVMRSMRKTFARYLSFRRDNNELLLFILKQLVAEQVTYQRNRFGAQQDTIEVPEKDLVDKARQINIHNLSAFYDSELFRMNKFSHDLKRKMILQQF
UniProt P12004: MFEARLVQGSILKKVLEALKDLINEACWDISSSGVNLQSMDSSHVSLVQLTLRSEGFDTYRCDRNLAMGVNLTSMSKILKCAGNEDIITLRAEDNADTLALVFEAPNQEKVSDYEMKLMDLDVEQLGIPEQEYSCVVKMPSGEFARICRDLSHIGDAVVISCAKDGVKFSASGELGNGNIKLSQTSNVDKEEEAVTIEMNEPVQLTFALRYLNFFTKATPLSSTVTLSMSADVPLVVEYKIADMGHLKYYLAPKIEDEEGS

How the values were obtained:
[1] = target: T1, Checkpoint kinase 1, wild type, N-terminal Strep-HA tag (human) (UniProt O14757); assay: affinity purification with mass spectrometry; N-terminal Strep-HA-tagged bait induced with doxycycline (24 h) in HEK293 cells; cells treated 4 h with 1 µM inhibitor (SGC-CAMKK2-1, SGC-CAMKK2-1N or rabusertib) or 0.01% DMSO; native lysis in HNN buffer (50 mM HEPES pH 8.0, 150 mM NaCl, 50 mM NaF) with 0.5% IGEPAL; StrepTactin Sepharose, biotin elution; interactors scored against EGFP pulldowns (modified D-score > 1.425)
T1 sequence: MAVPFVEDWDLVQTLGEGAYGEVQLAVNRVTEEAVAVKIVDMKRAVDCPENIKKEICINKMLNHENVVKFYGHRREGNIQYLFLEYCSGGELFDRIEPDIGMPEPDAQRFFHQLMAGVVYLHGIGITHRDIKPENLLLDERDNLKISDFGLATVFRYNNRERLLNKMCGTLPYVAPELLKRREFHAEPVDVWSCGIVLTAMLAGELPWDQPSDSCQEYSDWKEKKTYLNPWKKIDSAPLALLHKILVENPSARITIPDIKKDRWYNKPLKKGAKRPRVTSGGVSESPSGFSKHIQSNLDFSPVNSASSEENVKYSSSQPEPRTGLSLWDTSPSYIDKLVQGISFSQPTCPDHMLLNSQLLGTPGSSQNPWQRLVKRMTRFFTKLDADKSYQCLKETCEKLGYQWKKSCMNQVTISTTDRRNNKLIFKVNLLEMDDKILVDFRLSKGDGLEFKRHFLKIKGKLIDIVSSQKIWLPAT

[2] = target: Calcium/calmodulin-dependent protein kinase kinase 2, wild type, N-terminal Strep-HA tag (human) (UniProt Q96RR4); assay: as above
miniTurbo-PRKAA1 (human) = miniTurbo-PRKAA1 (human) (UniProt Q13131); assay: proximity labelling; N-terminal miniTurbo-tagged bait induced with doxycycline in HEK293 cells; 1 µM inhibitor (SGC-CAMKK2-1, rabusertib or Gö 6983) or 0.01% DMSO for 4 h, 50 µM biotin for the last hour; RIPA lysis; StrepTactin Sepharose; changes upon inhibitor against vehicle, EGFP control
[3] = target: T2, CHEK1 L449R, N-terminal Strep-HA tag (human) (UniProt O14757); assay: affinity purification with mass spectrometry; N-terminal Strep-HA-tagged bait induced with doxycycline (24 h) in HEK293 cells; cells treated 4 h with 1 µM inhibitor (SGC-CAMKK2-1, SGC-CAMKK2-1N or rabusertib) or 0.01% DMSO; native lysis in HNN buffer (50 mM HEPES pH 8.0, 150 mM NaCl, 50 mM NaF) with 0.5% IGEPAL; StrepTactin Sepharose, biotin elution; interactors scored against EGFP pulldowns (modified D-score > 1.425)
T2 sequence: T1 sequence with L449R

[4] = target: T3, CHEK1 D130A, N-terminal Strep-HA tag (human) (UniProt O14757); assay: as above
T3 sequence: T1 sequence with D130A

| Substance | binding [1] | other results |
| --- | --- | --- |
| 14-3-3 protein zeta (from UniProt P63104 1-245) | binds | – |
| Obscurin-like protein 1 (from UniProt O75147 1-1896) | – | binding [2]: binds |
| Puromycin-sensitive aminopeptidase (from UniProt P55786 1-919) | – | binding [2]: binds |
| endogenous CAMKK2 (from UniProt Q96RR4 1-588) | – | binding (miniTurbo-PRKAA1 (human)): binds |
| mitochondrial protein CLPB (human (endogenous in HEK293)) | binds | binding [3]: binds; binding [4]: binds |

Second part, led by results:

| binding [1] | Substance | other results |
| --- | --- | --- |
| binds | Ubiquitin carboxyl-terminal hydrolase 7 (from UniProt Q93009 1-1102) | – |
| binds | DNA replication licensing factor MCM2 (from UniProt P49736 1-904) | – |
| binds | proliferating cell nuclear antigen (from UniProt P12004 1-261) | – |
